Consider 18 compounds from PubChem BioAssay AID292 (DTP/NCI, 2004).

SMILES strings stand for the structures. The list does not hold the whole screen: it is rich in T/C values a quarter to a half above the control, in often repeated tests (any T/C) and in doses without a T/C. Further doses and runs are listed elsewhere. T/C is the treated group as % of the vehicle group. Some doses have a count of surviving animals in place of a T/C: the source files T/C as zero there, which appears to mark a toxic dose or a test without result, not a measured value. Some doses without a T/C left all or most animals alive at the check, yet need not have been tolerated: survival well below the control is almost never listed, so the zero probably covers shortened survival too. Counts of survivors are from the toxicity check (mostly the fifth day) where no day follows; animals may have died later. Schedules are NCI's codes, taken here to give the interval after Q, in days (D) or hours (H), and the number of doses after X. Some entries hold several experiments; the values are given in rising order. Where survival is the endpoint, this PubChem deposit counts one and a half times the control or more as active, and values a quarter to a half above the control carry no call in these data; other NCI protocols may use other cut-offs. Counts like (3×) give the number of equal values in this list. Some T/C values are followed by the survivors on the day toxicity was checked, most often the fifth; where none is given, no animal had died by that day.

In this test the test system is B6C3F1 mice, ip Sarcoma M5076, median survival T/C. In words: NCI In Vivo Anticancer Drug Screen. Data for tumor model Sarcoma M5076 (intraperitoneal) in B6C3F1 mice. As to conditions: T/C endpoint: median survival time, higher T/C = longer survival. Put shortly: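 Transplantable tumour in mice; compound-treated vs vehicle-treated groups. Read-out: survival. Value = treated/control ratio.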

The mark [1] stands for this setting: dose: 400.0 mg/kg/injection, schedule: Q04DX004 (ip), vehicle: suspension in saline.
The mark [2] stands for this setting: dose: 800.0 mg/kg/injection, schedule: Q04DX004 (ip), vehicle: saline.
Setting [3] is: dose: 400.0 mg/kg/injection, schedule: Q04DX004 (ip), vehicle: saline.
[4] abbreviates: dose: 100.0 mg/kg/injection, schedule: Q04DX004 (ip), vehicle: saline with Tween-80.
[5] abbreviates: dose: 150.0 mg/kg/injection, schedule: Q04DX004 (ip), vehicle: saline with Tween-80.
Where [6] appears, read: dose: 300.0 mg/kg/injection, schedule: Q04DX004 (ip), vehicle: saline with Tween-80.

For the compound `CCCCCCCCCCCCN1C(C)=CS/C1=C\C=C\c1scc(C)[n+]1CCCCCCCCCCCC`, the T/C (dose: 3.0 mg/kg/injection, schedule: Q04DX004 (ip), vehicle: saline with Tween-80) was 133 % of control. Also, the survivor count was 3 of 10 on day 14 (dose: 6.0 mg/kg/injection, schedule: Q04DX004 (ip), vehicle: saline with Tween-80) and 0 of 10 on day 14 (dose: 12.0 mg/kg/injection, schedule: Q04DX004 (ip), vehicle: saline with Tween-80).

In the case of `N=C(N)SCc1cccc2c(=O)cc(-c3ccccc3)oc12`, the T/C under setting [1] was 134 % of control. Moreover, the survivor count under setting [1] is 4 of 10 on day 14 and 6 of 10 on day 14; the survivor count (dose: 666.67 mg/kg/injection, schedule: Q04DX004 (ip), vehicle: suspension in saline) is reported as 0 of 10 on day 14; the survivor count under setting [2] was 3 of 9 on day 14; the survivor count (dose: 800.0 mg/kg/injection, schedule: Q04DX004 (ip), vehicle: suspension in saline) was 5 of 10 on day 14; the survivor count (dose: 1111.11 mg/kg/injection, schedule: Q04DX004 (ip), vehicle: suspension in saline) is given as 0 of 10 on day 14.

With `Nc1ccn(C2CC(N)C(CO)O2)c(=O)n1` (stereo not drawn), the T/C reads like this: (dose: 50.0 mg/kg/injection, schedule: Q04DX004 (ip), vehicle: water) 125 % of control; (dose: 100.0 mg/kg/injection, schedule: Q04DX004 (ip), vehicle: water) 129 % of control; (dose: 200.0 mg/kg/injection, schedule: Q04DX004 (ip), vehicle: water) 129, 140, 147 % of control; (dose: 400.0 mg/kg/injection, schedule: Q04DX004 (ip), vehicle: water) 140 and 144 % of control (2×); (dose: 800.0 mg/kg/injection, schedule: Q04DX004 (ip), vehicle: water) 140 % of control [9 of 10 alive on day 14].

As for `CC(C)NCC(O)CC(c1ccccc1)c1ccccc1` (stereo not drawn), the survivor count (dose: 200.0 mg/kg/injection, schedule: Q04DX004 (ip), vehicle: saline with Tween-80) was 0 of 10 on day 14.

As to `Cc1ncc(CO)c(CO)c1OCC(O)CN1CCN(C(=O)c2ccccc2)CC1` (stereo not drawn), the survivor count (dose: 200.0 mg/kg/injection, schedule: Q04DX004 (ip), vehicle: saline) is listed as 4 of 10 on day 14 and the survivor count under setting [3] is on record as 3 of 10 on day 14.

`OC(C1CO1)C(O)C1CO1` (stereo not drawn): the survivor count (dose: 16.0 mg/kg/injection, schedule: Q04DX005 (ip), vehicle: saline) is listed as 1 of 8 on day 17.

Consider `C/C(=N\NC(=S)N1CC2CCC(CC2)C1)c1cccc(C)n1`, for which the survivor count reads like this: (dose: 6.25 mg/kg/injection, schedule: Q04DX004 (ip), vehicle: saline with Tween-80) 5 of 10 on day 14; under setting [4], 1 of 10 on day 14, 3 of 10 on day 14, 5 of 10 on day 14.

As to `CC1OC2CC(O)C1(O)C1=C2C(O)=C(C(N)=O)C(=N)C1=O` (stereo not drawn), the survivor count (dose: 10.0 mg/kg/injection, schedule: Q04DX004 (ip), vehicle: saline) is given as 2 of 10 on day 14 and the survivor count (dose: 20.0 mg/kg/injection, schedule: Q04DX004 (ip), vehicle: saline) is reported as 0 of 10 on day 14.

As to `CC(C)(C)c1cc2c3c(c1)Oc1cc(C(C)(C)C)cc4c1C3(O)c1c(cc(C(C)(C)C)cc1O4)O2`, the T/C was 127 % of control (dose: 15.0 mg/kg/injection, schedule: Q04DX004 (ip), vehicle: Klucel (hydroxypropylcellulose) (HPC)); 127 and 127 % of control [7 of 10 alive on day 14] (dose: 25.0 mg/kg/injection, schedule: Q04DX004 (ip), vehicle: Klucel (hydroxypropylcellulose) (HPC)). Besides, the survivor count is, setting by setting: (dose: 41.66 mg/kg/injection, schedule: Q04DX004 (ip), vehicle: Klucel (hydroxypropylcellulose) (HPC)) 7 of 10 on day 14; (dose: 50.0 mg/kg/injection, schedule: Q04DX004 (ip), vehicle: Klucel (hydroxypropylcellulose) (HPC)) 1 of 10 on day 14; (dose: 69.44 mg/kg/injection, schedule: Q04DX004 (ip), vehicle: Klucel (hydroxypropylcellulose) (HPC)) 1 of 10 on day 14; (dose: 100.0 mg/kg/injection, schedule: Q04DX004 (ip), vehicle: Klucel (hydroxypropylcellulose) (HPC)) 0 of 10 on day 14.

In the case of `CC(C)(O)/C=C/C(=O)[C@](C)(O)[C@H]1[C@H](O)C[C@@]2(C)[C@@H]3CC=C4[C@@H](C=C(O)C(=O)C4(C)C)[C@]3(C)C(=O)C[C@]12C`, where the note is “dose: 1.0 mg/kg/injection, schedule: Q04DX004 (ip), vehicle: water”, the T/C was 128 % of control [9 of 10 alive on day 14]. Besides, the survivor count is, setting by setting: (dose: 2.0 mg/kg/injection, schedule: Q04DX004 (ip), vehicle: water) 1 of 10 on day 14; (dose: 2.78 mg/kg/injection, schedule: Q04DX004 (ip), vehicle: water) 0 of 10 on day 14; (dose: 4.0 mg/kg/injection, schedule: Q04DX004 (ip), vehicle: water) 0 of 10 on day 14; (dose: 4.63 mg/kg/injection, schedule: Q04DX004 (ip), vehicle: water) 0 of 10 on day 14; (dose: 7.72 mg/kg/injection, schedule: Q04DX004 (ip), vehicle: water) 0 of 10 on day 14; (dose: 8.0 mg/kg/injection, schedule: Q04DX004 (ip), vehicle: water) 0 of 10 on day 14.

Consider `CC(NNC(=S)N(C)C1CCCCC1)c1cc2ccccc2cn1` (stereo not drawn), for which the survivor count runs as follows: under setting [3], 1 of 10 on day 14; under setting [2], 0 of 10 on day 14.

`CCn1c2ccccc2c2cc(N=Nc3cc4ccccc4cc3O)ccc21`: the survivor count (dose: 87.5 mg/kg/injection, schedule: Q04DX004 (ip), vehicle: Klucel (hydroxypropylcellulose) (HPC)) is reported as 10 of 10 on day 14; the survivor count (dose: 175.0 mg/kg/injection, schedule: Q04DX004 (ip), vehicle: Klucel (hydroxypropylcellulose) (HPC)) is 10 of 10 on day 14; the survivor count (dose: 350.0 mg/kg/injection, schedule: Q04DX004 (ip), vehicle: Klucel (hydroxypropylcellulose) (HPC)) is 7 of 9 on day 14; the survivor count (dose: 700.0 mg/kg/injection, schedule: Q04DX004 (ip), vehicle: Klucel (hydroxypropylcellulose) (HPC)) is recorded as 9 of 10 on day 14.

On to `CC[C@](C)(O)C(=O)O[C@H]1C(=O)O[C@@H]2C[C@H]3C(C)=CC(=O)[C@@H](O)[C@]3(C)[C@H]3[C@@]4(O)OC[C@]32[C@@H]1[C@@H](C)[C@H]4O`, for which the survivor count by setting is: (dose: 0.12 mg/kg/injection, schedule: Q04DX004 (ip), vehicle: saline) 6 of 10 on day 14; (dose: 0.24 mg/kg/injection, schedule: Q04DX004 (ip), vehicle: saline) 3 of 10 on day 14; (dose: 0.48 mg/kg/injection, schedule: Q04DX004 (ip), vehicle: saline) 2 of 10 on day 14; (dose: 0.5 mg/kg/injection, schedule: Q04DX004 (ip), vehicle: saline) 5 of 10 on day 9; (dose: 1.0 mg/kg/injection, schedule: Q04DX004 (ip), vehicle: saline) 5 of 10 on day 9; (dose: 2.0 mg/kg/injection, schedule: Q04DX004 (ip), vehicle: saline) 3 of 10 on day 9. Besides, under “dose: 4.0 mg/kg/injection, schedule: Q04DX004 (ip), vehicle: saline”, the survivor count is given as 3 of 10 on day 9.

Turning to `O=[N+]([O-])c1ccc(/C=C/C=C/C=C/C=C/c2ccc(S(=O)(=O)F)cc2Cl)c(Cl)c1`, the survivor count is 10 of 10 on day 14 under setting [5] and 10 of 10 on day 14 under setting [6].

For `COc1ccc(C(C)c2cc3c(cc2OC)OCO3)cc1` (stereo not drawn), under setting [4], the T/C was 129 % of control. In addition, for the setting “dose: 400.0 mg/kg/injection, schedule: Q04DX004 (ip), vehicle: saline with Tween-80”, the survivor count is recorded as 0 of 10 on day 9.

For `CN1C2CCC1C(Br)C(=O)C2` (stereo not drawn), the survivor count reads like this: under setting [3], 0 of 8 on day 14; under setting [2], 0 of 8 on day 14.

As for `c1ccc2[nH]c(CN(CCN(Cc3nc4ccccc4[nH]3)Cc3nc4ccccc4[nH]3)Cc3nc4ccccc4[nH]3)nc2c1`, the survivor count reads like this: (dose: 25.0 mg/kg/injection, schedule: Q04DX004 (ip), vehicle: other) 3 of 10 on day 14; (dose: 50.0 mg/kg/injection, schedule: Q04DX004 (ip), vehicle: other) 1 of 10 on day 14.

For the compound `c1ccc([Te][Te]c2ccccc2)cc1`, the survivor count is reported as 5 of 10 on day 14 under setting [5] and 3 of 10 on day 14 under setting [6].
